# Test results published in patent publication US20250339409A1, “USES OF PAN BET INHIBITORS” (VYNE THERAPEUTICS INC., priority 2021, published 2025).
# “And” between values parts separate entries of the source, which are not always exact repeats. Equal entries are not always repeated. The source gives many values for each of these; only a part stands here.
# Test system: anti collagen antibodies induced arthritis (ACAIA)
# Experiment: Anti collagen antibodies induced arthritis (ACAIA) in mice, intra-articular treatment: paw thickness, arthritis clinical score, body weight;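 further: mouse arthritis induced by IV anti-collagen mAb on day 0 plus IP LPS on day 4, with body weight, caliper paw thickness and 0-4 paw score tracked against a day 0 baseline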
compound,measurement,setting,value
Cn1cc(-c2cccc(O)c2Oc2ccccc2)c2cc[nH]c2c1=O [BETi1],Percent change of weight per day (individual animal),"0.01 mg/kg IA (Group 5), Baseline",100%
same,Percent change of weight per day (individual animal),"0.01 mg/kg IA (Group 5), Day 3",99.05% and 98.56% and 100.4651% and 97.66% and 99.48% and 100.5348% and 100%
same,Percent change of weight per day (individual animal),"0.01 mg/kg IA (Group 5), Day 4",100.4762% and 99.52% and 97.2093% and 100.9346% and 89.69% and 95.19% and 93.33%
same,Percent change of weight per day (individual animal),"0.01 mg/kg IA (Group 5), Day 5",92.86% and 89.47% and 88.84% and 94.39% and 85.57% and 89.84% and 87.62%
same,Percent change of weight per day (individual animal),"0.01 mg/kg IA (Group 5), Day 6",90.95% and 90.91% and 86.51% and 92.99% and 80.41% and 88.24% and 86.19%
same,Percent change of weight per day (individual animal),"0.01 mg/kg IA (Group 5), Day 7",92.38% and 92.3445% and 87.91% and 93.46% and 82.47% and 106.4171% and 88.1%
same,Percent change of weight per day (individual animal),"0.01 mg/kg IA (Group 5), Day 8",91.9% and 94.26% and 87.91% and 93.93% and 82.47% and 90.37% and 88.1%
same,Percent change of weight per day (individual animal),"0.01 mg/kg IA (Group 5), Day 10",93.33% and 93.3% and 85.12% and 91.1215% and 83.51% and 93.05% and 88.57%
same,Percent change of weight per day (individual animal),"0.01 mg/kg IA (Group 5), Day 12",94.7619% and 95.69% and 88.84% and 93.6% and 87.1134% and 97.3262% and 91.9%
same,Percent change of weight per day (individual animal),"0.1 mg/kg IA (Group 4), Baseline",100%
same,Percent change of weight per day (individual animal),"0.1 mg/kg IA (Group 4), Day 3",99.0099% and 100.9524% and 103.0457% and 102.2831% and 101.4778% and 98.6% and 101.6216%
same,Percent change of weight per day (individual animal),"0.1 mg/kg IA (Group 4), Day 4",99.0099% and 101.4286% and 91.37% and 100% and 100.4926% and 99.53% and 103.2432%
same,Percent change of weight per day (individual animal),"0.1 mg/kg IA (Group 4), Day 5",89.6% and 90.48% and 84.26% and 93.61% and 95.5665% and 90.23% and 94.05%
same,Percent change of weight per day (individual animal),"0.1 mg/kg IA (Group 4), Day 6",85.64% and 89.05% and 83.76% and 89.95% and 91.133% and 87.91% and 92.97%
same,Percent change of weight per day (individual animal),"0.1 mg/kg IA (Group 4), Day 7",88.12% and 89.52% and 85.28% and 89.0411% and 89.66% and 87.44% and 90.27%
same,Percent change of weight per day (individual animal),"0.1 mg/kg IA (Group 4), Day 8",86.63% and 87.62% and 84.77% and 89.0411% and 90.64% and 85.5814% and 89.73%
same,Percent change of weight per day (individual animal),"0.1 mg/kg IA (Group 4), Day 10",90.1% and 90.48% and 85.28% and 88.58% and 87.19% and 88.84% and 90.81%
same,Percent change of weight per day (individual animal),"0.1 mg/kg IA (Group 4), Day 12",93.07% and 94.7619% and 88.83% and 94.52% and 92.12% and 93.95% and 97.2973%
same,Percent change of weight per day (individual animal),"1 mg/kg IA (Group 3), Day 3",100.5076% and 101.4563%
same,Percent change of weight per day (individual animal),"1 mg/kg IA (Group 3), Day 4",101.0152% and 101.9417%
same,Percent change of weight per day (individual animal),"1 mg/kg IA (Group 3), Day 5",90.86% and 94.66%
same,Percent change of weight per day (individual animal),"1 mg/kg IA (Group 3), Day 6",87.31% and 91.26%
same,Percent change of weight per day (individual animal),"1 mg/kg IA (Group 3), Day 7",89.85% and 93.2%
same,Percent change of weight per day (individual animal),"1 mg/kg IA (Group 3), Day 8",89.77% and 92.39% and 95.15%
same,Percent change of weight per day (individual animal),"1 mg/kg IA (Group 3), Day 10",89.77% and 94.92% and 93.2%
same,Percent change of weight per day (individual animal),"1 mg/kg IA (Group 3), Day 12",98.48% and 97.57%
"C[C@@H]1C[C@H]2[C@@H]3CCC4=CC(=O)C=C[C@]4(C)[C@@]3(F)[C@@H](O)C[C@]2(C)[C@@]1(O)C(=O)CO [dexamethasone, Dexamethasone, reference compound]",Percent change of weight per day (individual animal),"1 mg/kg IA (Group 7), Day 3",98.51% and 97.52% and 98.56%
same,Percent change of weight per day (individual animal),"1 mg/kg IA (Group 7), Day 4",95.0495% and 94.55% and 96.17%
same,Percent change of weight per day (individual animal),"1 mg/kg IA (Group 7), Day 5",90.1% and 87.62% and 90.91%
same,Percent change of weight per day (individual animal),"1 mg/kg IA (Group 7), Day 6",87.62% and 84.65% and 85.65%
same,Percent change of weight per day (individual animal),"1 mg/kg IA (Group 7), Day 7",86.14% and 78.22% and 89.47%
same,Percent change of weight per day (individual animal),"1 mg/kg IA (Group 7), Day 8",89.11% and 81.19% and 90.43%
same,Percent change of weight per day (individual animal),"1 mg/kg IA (Group 7), Day 10",90.1% (2×) and 92.82%
same,Percent change of weight per day (individual animal),"1 mg/kg IA (Group 7), Day 12",96.17%
